Assay results as given in article PMC8874921.
Construct, isoform or probe ends are uncertain for at least one entry. Where cells or extracts were used, other partners may take part. A weaker result is weaker than the reference pair of the same experiment. At least one verdict rests on a figure or table, not on a statement of the authors.

Assays:
wt MBD2 displayed = test: flow cytometry display; settings: FACS display: PBS with 0.1% BSA, protein on the cell surface, protein details: AIDA-I autotransporter, label: 5' BtnTg, phycoerythrin
wt MBD3 displayed = test: flow cytometry display; settings: low affinity, separated from MBD2; 5mC in both strands; FACS display: PBS with 0.1% BSA; protein on the cell surface; protein details: AIDA-I autotransporter; label: 5' BtnTg, phycoerythrin

Sequence | binding result (wt MBD2 displayed) | binding result (wt MBD3 displayed) | binding result (wt MBD2 displayed; 0.1% BSA block in selections, 5mC in both strands)
AAAAAAAAAAACGAAAAAAAAAAA (double strand) [C/C FACS probe] | binds more weakly | – | –
AAAAAAAAAAACGAAAAAAAAAAA (double strand) [mC/mC FACS probe] | – | binds more weakly | binds
